# Data: article PMC5996148
# Some of the results follow.
# How the values were obtained:
# Experiment in all cases: protein microarray (ProtoArray v5.0), streptavidin-Alexa Fluor 647
# Conditions in all cases: 3'-biotin; 20 mM Tris (pH 7.5), 5 mM MgCl2, 100 mM KCl, 0.1% Tween-20, A/T-rich and random oligonucleotide blockers; temperature not stated; high values mean tight binding
# [1] = test system: TXNDC1 (human)
# [2] = test system: TXNDC9 (human)
# [3] = test system: TXNL4B (human)
# [4] = test system: Tachykinin-3 (human)
# [5] = test system: Taste receptor type 2 member 60 (human)
# [6] = test system: Tesmin (human)
# [7] = test system: Tetratricopeptide repeat protein 1 (human)
# [8] = test system: Thymosin beta-4, Y-chromosomal (human)
# [9] = test system: Thyroid receptor-interacting protein 11 (human)
# [10] = test system: Trafficking protein particle complex subunit 6A (human)
# [11] = test system: Transaldolase (human)
# [12] = test system: Transcription initiation factor TFIID subunit 8 (human)
# [13] = test system: Transmembrane 4 L6 family member 1 (human)
# [14] = test system: Transmembrane protein 107 (human)
# [15] = test system: Transmembrane protein 156 (human)
# [16] = test system: Transmembrane protein 203 (human)
# [17] = test system: Transmembrane protein 43 (human)
# [18] = test system: Transmembrane protein 86B (human)
# [19] = test system: Tubulin-specific chaperone D (human)
# [20] = test system: Tumor protein D52 (human)
sequence,measurement,setting,value
GGTGACAGGGGTATGGGGAGGGG [G4-2 biotinylated (Ct1)],binding signal,[1],-0.375 z-score
same,binding signal,[2],-0.395 z-score
same,binding signal,[3],-0.377 z-score
same,binding signal,[4],-0.38 z-score
same,binding signal,[5],-0.367 z-score
same,binding signal,[6],-0.388 z-score
same,binding signal,[7],-0.388 z-score
same,binding signal,[8],-0.392 z-score
same,binding signal,[9],-0.385 z-score
same,binding signal,[10],-0.375 z-score
same,binding signal,[11],-0.394 z-score
same,binding signal,[12],-0.385 z-score
same,binding signal,[13],-0.359 z-score
same,binding signal,[14],-0.385 z-score
same,binding signal,[15],-0.393 z-score
same,binding signal,[16],-0.392 z-score
same,binding signal,[17],-0.376 z-score
same,binding signal,[18],-0.373 z-score
same,binding signal,[19],-0.392 z-score
same,binding signal,[20],-0.399 z-score

# Not a retest: an excerpt of the list.
sequence,measurement,setting,value
GGTGACAGGGGTATGGGGAGGGG [G4-2 biotinylated (Ct1)],binding signal,[17],-0.376 z-score
same,binding signal,[18],-0.373 z-score
